PubChem BioAssay AID504793 – Drosophila RNAi Screening Center – 2011

Assay: 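Genes required for cells to halt at G2/M after double-strand DNA breaks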 (primary screen)
Cells: Drosophila S2R+ cells
Reagents: long dsRNA against Drosophila genes, about 0.25 µg dsRNA per well
Time to read-out: 4 days of dsRNA, then 4 hours of drug before read-out
Treatment: doxorubicin 0.5 µM for 4 hours to cause double-strand breaks, in cells also given a low, harmless dose of dsRNA against nbs to sensitise the assay
Measurement: 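Mitotic index as the number of phospho-histone H3-positive cells in each well following doxorubicin, given as raw counts without normalisation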
Direction: mitotic cells: higher = more cells in mitosis, weaker G2 arrest
Active means: 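a call needs confirmation in secondary tests, with other dsRNAs and a check of mitotic timing without damage, not just a high primary count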
Calls: active = confirmed in follow-up tests; inactive = not confirmed
The deposit covers about 23,000 reagents; shown is a random part of those that have a named target and a result. Of all reagents, 62 (0.27%) were called active. 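Calls come from follow-up tests whose scores are not deposited, so confirmed genes may have low counts here; counts are not normalised per plate.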 Raw values are not corrected between plates. Names joined by + are all predicted targets of the reagent.

The opening 13 records, to show the layout:
Target gene,amplicon,"mitotic cells, replicate 1",Outcome
CG4461,DRSC10423,4,inactive
CG4461,DRSC29266,6,inactive
CG15712,DRSC06583,10,inactive
Fdx2,DRSC08306,6,inactive
CG12620,DRSC02177,4,inactive
CG12620,DRSC24601,2,inactive
CG17601,DRSC20639,4,inactive
Capa,DRSC15058,2,inactive
poe,DRSC03593,6,inactive
poe,DRSC28537,15,inactive
CG30203,DRSC06690,7,inactive
Cow,DRSC13601,13,inactive
Cow,DRSC14680,8,inactive

The listing, from the first entry:
Target gene,amplicon,"mitotic cells, replicate 1",Outcome
CG4461,DRSC10423,4,inactive
CG4461,DRSC29266,6,inactive
CG15712,DRSC06583,10,inactive
Fdx2,DRSC08306,6,inactive
CG12620,DRSC02177,4,inactive
CG12620,DRSC24601,2,inactive
CG17601,DRSC20639,4,inactive
Capa,DRSC15058,2,inactive
poe,DRSC03593,6,inactive
poe,DRSC28537,15,inactive
CG30203,DRSC06690,7,inactive
Cow,DRSC13601,13,inactive
Cow,DRSC14680,8,inactive
Cow,DRSC29766,8,inactive
CG13717 (retired record),DRSC08116,5,inactive
CG13717 (retired record),DRSC08324,5,inactive
CG13717 (retired record),DRSC21337,7,inactive
CG13717 (retired record),DRSC23087,7,inactive
CG13717 (retired record),DRSC28552,2,inactive
CG14357,DRSC14820,2,inactive
CG14357,DRSC28685,8,inactive
CG9849,DRSC04573,5,inactive
Ir64a,DRSC09759,8,inactive
Ir64a,DRSC09760,6,inactive
CG32066,DRSC10652,1,inactive
CG32066,DRSC10653,2,inactive
cDIP,DRSC14267,2,inactive
EMC4,DRSC11638,12,inactive
EMC4,DRSC29652,8,inactive
ND2 (retired record),DRSC21274,10,inactive
Kal1,DRSC15983,6,inactive
Papst2,DRSC10924,9,inactive
Papst2,DRSC27212,8,inactive
CG15439,DRSC00453,7,inactive
CG15439,DRSC29801,6,inactive
Cdk2,DRSC16921,8,inactive
janB,DRSC16973,12,inactive
CG7744,DRSC07036,6,inactive
CG32277,DRSC08196,7,inactive
yellow-c + CIAPIN1,DRSC01898,6,inactive
Nha1,DRSC02109,3,inactive
CG30416,DRSC04565,6,inactive
CG13690,DRSC00359,9,inactive
ValRS-m,DRSC10535,5,inactive
CG13692,DRSC00361,7,inactive
CG13692,DRSC28585,6,inactive
geminin,DRSC04984,7,inactive
geminin,DRSC29794,6,inactive
uif,DRSC03427,4,inactive
unc-45,DRSC15449,4,inactive
st,DRSC11399,4,inactive
st,DRSC28257,11,inactive
mthl13,DRSC05238,12,inactive
RpL31,DRSC06716,7,inactive
RpL31,DRSC29618,1,inactive
TfIIFbeta,DRSC16884,9,inactive
TfIIFbeta,DRSC21447,12,inactive
TfIIFbeta,DRSC29742,17,inactive
CG18480,DRSC01957,2,inactive
CG18480,DRSC24949,7,inactive
Prx6c,DRSC06080,9,inactive
Prx6c,DRSC28598,8,inactive
CG31908,DRSC23243,10,inactive
Jra,DRSC07447,3,inactive
Jra,DRSC27606,12,inactive
ng4,DRSC18805,8,inactive
CG14881,DRSC15005,9,inactive
CG14881,DRSC25898,6,inactive
ato,DRSC16904,4,inactive
c12.1,DRSC18750,11,inactive
c12.1,DRSC25556,8,inactive
Rtnl2,DRSC12609,7,inactive
Rtnl2,DRSC21655,8,inactive
Rtnl2,DRSC26022,6,inactive
cathD,DRSC07588,6,inactive
CG32813,DRSC17948,7,inactive
CG32813,DRSC24734,6,inactive
Sh3beta,DRSC11001,4,inactive
Sh3beta,DRSC22053,8,inactive
Sh3beta,DRSC27871,8,inactive
CG13409,DRSC14585,12,inactive
sut3,DRSC07702,7,inactive
sut3,DRSC24322,4,inactive
CG33258,DRSC09415,4,inactive
CG33258,DRSC23590,8,inactive
ast,DRSC00803,5,inactive
ast,DRSC27973,10,inactive
ND-B14.5B,DRSC00346,8,inactive
Try29F,DRSC03466,2,inactive
Try29F,DRSC25721,8,inactive
CG1698,DRSC06640,4,inactive
CG1698,DRSC24314,5,inactive
ktub,DRSC04551,9,inactive
CG14132,DRSC10136,4,inactive
Fen1,DRSC07415,8,inactive
NijA,DRSC10637,10,inactive
CG9782,DRSC19145,26,inactive
CG9782,DRSC20209,7,inactive
CG9782,DRSC25115,9,inactive
Obp49a,DRSC22562,3,inactive
Obp49a,DRSC25703,2,inactive
Lkb1,DRSC16481,11,inactive
rhea,DRSC11300,3,inactive
lig,DRSC07246,9,inactive
lig,DRSC07247,1,inactive
lig,DRSC23574,7,inactive
CG12971,DRSC11681,2,inactive
CG12971,DRSC23893,5,inactive
Tsp42Ef,DRSC06191,6,inactive
CG11275,DRSC04095,5,inactive
Mrm2,DRSC14310,9,inactive
Mrm2,DRSC27849,5,inactive
CG13872,DRSC06431,12,inactive
CG2772,DRSC00530,4,inactive
CG2772,DRSC27114,4,inactive
CG14913,DRSC02397,12,inactive
CG14913,DRSC27967,4,inactive
CG8950,DRSC07300,4,inactive
yki,DRSC04437,5,inactive
yki,DRSC28304,6,inactive
lncRNA:CR33987,DRSC26079,5,inactive
chrb,DRSC11335,3,inactive
chrb,DRSC25273,10,inactive
Sox21a,DRSC10819,3,inactive
Sox21a,DRSC25435,1,inactive
CG30008,DRSC21576,10,inactive
CG30008,DRSC27726,10,inactive
GluRIB + CG42509 (retired record),DRSC10258,9,inactive
GluRIB + CG42509 (retired record),DRSC11177,1,inactive
GluRIB + CG42509 (retired record),DRSC25464,,inactive
CG31407,DRSC12761,6,inactive
TfIIS,DRSC03455,3,inactive
TfIIS,DRSC24533,12,inactive
CG6688,DRSC16094,9,inactive
CG6688,DRSC25613,6,inactive
Dhc1,DRSC16503,7,inactive
Cpr72Ea,DRSC10451,6,inactive
CG15194 (retired record),DRSC19642,9,inactive
CG15194 (retired record),DRSC19777,9,inactive
CG6040,DRSC15954,7,inactive
CG6040,DRSC26100,5,inactive
